Laboratory results from US6387909B1, “Thienopyranecarboxamide derivatives” (Recordati S.A. Chemical and Pharmaceutical Company, priority 1999, dated 2002).

System: prostatic urethral contractions induced by noradrenaline
Experiment: Urethral contractions induced by noradrenaline injection in anaesthetized dogs after intravenous administration
Format: in vivo
Conditions: dog, i.v.; DBP ED25 / UC ID50
Description: The experiments were performed according to the method of Imagawa et al. (J. Pharmacol. Methods, 22:103-111, 1989), with substantial modifications, as follows: adult male beagle dogs, weighing 8-10 kg, were anaesthetized with pentobarbital sodium (30 mg/kg i.v. and 2 mg/kg/h i.v.), intubated and spontaneously ventilated with room air. In order to monitor systemic blood pressure (BP), a polyethylene (PE) catheter was introduced into the aortic arch through the left femoral artery. A collateral of the left femoral vein was cannulated for infusion of anaesthetic, and the right femoral vein was cannulated for administration of compounds. For intraarterial (i.a.) injection of noradrenaline (NA), a PE catheter was introduced into the lower portion of the abdominal aorta via the right external iliac artery. Through such procedure, NA was selectively distributed to the lower urinary tract. […] Prostatic urethral pressure was monitored with a Mikro-tip catheter (5F) introduced into the bladder via the external urethral meatus, and withdrawn until the pressure transducer was positioned in the prostatic region of the urethra. […]
After a stabilizing period following the surgical procedure (30 minutes), in which arterial and prostatic urethral pressures were continuously monitored as basal values, i.a. administration of NA was made at intervals of 20 minutes. […]

SMILES | Ratio (DBP/US) between the active doses
O=C(NCCCN1CCN(c2ccccc2OCC(F)(F)F)CC1)c1csc2c(=O)cc(-c3ccccc3)oc12 [Example 5, 7-Oxo-5-phenyl-N-{3-[4-[2-(2,2,2-trifluoroethoxy)phenyl]-1-piperazinyl]propyl}-7H-thieno[3,2-b]pyran-3-carboxamide] | >370
COc1ccccc1N1CCN(CCCNC(=O)c2csc3c(=O)cc(-c4ccccc4)oc23)CC1 [Example 2, N-{3-[4-(2-Methoxyphenyl)-1-piperazinyl]propyl}-7-oxo-5-phenyl-7H-thieno[3,2-b]pyran-3-carboxamide] | 19.7
